# ± gives the standard deviation of the averaged measurements. The entries are a selection whose mix differs from that of the whole data set.
# Sequences of proteins named here, by UniProt entry; tags and fusion partners are left off. A change or cut given only in a name is not applied to a line headed by its entry.
# UniProt Q9HCE5: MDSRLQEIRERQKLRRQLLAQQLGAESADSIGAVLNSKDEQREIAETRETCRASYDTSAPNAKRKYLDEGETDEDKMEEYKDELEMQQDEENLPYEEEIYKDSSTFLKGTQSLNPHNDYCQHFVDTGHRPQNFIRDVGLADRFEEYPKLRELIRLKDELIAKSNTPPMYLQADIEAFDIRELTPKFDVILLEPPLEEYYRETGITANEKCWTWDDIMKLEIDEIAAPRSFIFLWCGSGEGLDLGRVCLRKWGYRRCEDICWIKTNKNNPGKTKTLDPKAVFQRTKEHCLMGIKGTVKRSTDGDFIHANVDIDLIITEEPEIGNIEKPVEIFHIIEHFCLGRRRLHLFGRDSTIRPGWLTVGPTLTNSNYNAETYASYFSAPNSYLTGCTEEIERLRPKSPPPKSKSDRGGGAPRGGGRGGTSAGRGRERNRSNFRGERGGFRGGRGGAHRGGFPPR
# UniProt Q9H008: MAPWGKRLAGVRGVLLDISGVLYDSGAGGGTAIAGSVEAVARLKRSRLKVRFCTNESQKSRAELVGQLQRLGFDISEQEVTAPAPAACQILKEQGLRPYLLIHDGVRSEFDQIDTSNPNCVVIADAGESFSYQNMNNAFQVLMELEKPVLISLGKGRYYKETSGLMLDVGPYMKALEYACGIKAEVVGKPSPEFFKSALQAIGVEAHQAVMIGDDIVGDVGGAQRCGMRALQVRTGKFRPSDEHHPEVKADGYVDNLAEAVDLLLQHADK
# UniProt Q9H0U4: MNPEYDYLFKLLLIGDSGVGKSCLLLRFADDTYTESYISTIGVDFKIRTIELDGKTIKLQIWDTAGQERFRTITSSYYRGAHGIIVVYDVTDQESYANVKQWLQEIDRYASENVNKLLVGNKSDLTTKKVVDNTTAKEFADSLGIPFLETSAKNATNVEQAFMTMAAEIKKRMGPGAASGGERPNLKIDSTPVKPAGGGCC
# UniProt Q9H3U1: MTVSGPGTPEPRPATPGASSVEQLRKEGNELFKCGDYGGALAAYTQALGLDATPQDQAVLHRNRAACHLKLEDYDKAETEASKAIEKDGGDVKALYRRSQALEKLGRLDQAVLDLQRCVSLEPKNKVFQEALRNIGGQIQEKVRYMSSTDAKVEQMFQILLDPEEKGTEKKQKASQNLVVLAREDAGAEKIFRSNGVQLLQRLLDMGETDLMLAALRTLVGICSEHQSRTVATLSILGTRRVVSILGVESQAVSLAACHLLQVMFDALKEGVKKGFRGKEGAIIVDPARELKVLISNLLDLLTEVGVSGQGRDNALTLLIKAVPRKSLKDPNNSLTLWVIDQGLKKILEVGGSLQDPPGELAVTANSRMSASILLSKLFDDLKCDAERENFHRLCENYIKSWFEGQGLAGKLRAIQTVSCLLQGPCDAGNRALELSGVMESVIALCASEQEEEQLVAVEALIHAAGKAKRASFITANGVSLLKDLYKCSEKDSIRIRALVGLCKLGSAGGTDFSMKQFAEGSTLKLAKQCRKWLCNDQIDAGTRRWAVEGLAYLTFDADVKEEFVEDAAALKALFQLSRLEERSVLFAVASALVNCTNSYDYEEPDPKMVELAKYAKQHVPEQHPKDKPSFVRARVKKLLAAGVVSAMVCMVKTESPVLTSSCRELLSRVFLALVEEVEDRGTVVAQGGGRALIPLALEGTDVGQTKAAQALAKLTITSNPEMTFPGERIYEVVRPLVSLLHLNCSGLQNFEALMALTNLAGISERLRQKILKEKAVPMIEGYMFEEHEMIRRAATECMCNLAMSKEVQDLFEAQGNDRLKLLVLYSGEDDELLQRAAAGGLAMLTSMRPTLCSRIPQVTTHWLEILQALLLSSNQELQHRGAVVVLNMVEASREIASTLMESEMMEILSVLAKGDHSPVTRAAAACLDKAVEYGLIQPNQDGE
# UniProt Q9NP72: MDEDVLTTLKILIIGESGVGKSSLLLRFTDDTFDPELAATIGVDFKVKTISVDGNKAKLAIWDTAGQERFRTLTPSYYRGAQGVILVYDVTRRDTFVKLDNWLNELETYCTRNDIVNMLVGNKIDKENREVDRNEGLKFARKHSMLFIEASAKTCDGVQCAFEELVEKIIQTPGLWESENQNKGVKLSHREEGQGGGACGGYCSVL
# UniProt Q9H9P8: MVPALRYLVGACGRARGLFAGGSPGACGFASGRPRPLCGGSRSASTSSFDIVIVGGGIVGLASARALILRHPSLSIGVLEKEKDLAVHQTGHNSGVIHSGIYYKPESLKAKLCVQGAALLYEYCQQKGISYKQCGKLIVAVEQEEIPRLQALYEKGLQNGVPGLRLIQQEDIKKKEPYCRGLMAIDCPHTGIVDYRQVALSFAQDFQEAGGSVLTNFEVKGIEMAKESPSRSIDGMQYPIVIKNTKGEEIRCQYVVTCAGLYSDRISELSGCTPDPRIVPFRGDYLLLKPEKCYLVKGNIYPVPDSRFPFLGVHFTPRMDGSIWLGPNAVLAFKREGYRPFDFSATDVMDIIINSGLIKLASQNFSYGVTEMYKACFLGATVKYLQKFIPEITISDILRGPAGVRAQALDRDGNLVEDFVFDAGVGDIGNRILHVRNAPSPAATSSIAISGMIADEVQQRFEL
# UniProt Q9H098: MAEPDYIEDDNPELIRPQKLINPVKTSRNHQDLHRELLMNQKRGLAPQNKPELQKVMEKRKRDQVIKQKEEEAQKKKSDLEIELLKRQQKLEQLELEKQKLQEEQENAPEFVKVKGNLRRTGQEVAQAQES
# UniProt Q9H8U3: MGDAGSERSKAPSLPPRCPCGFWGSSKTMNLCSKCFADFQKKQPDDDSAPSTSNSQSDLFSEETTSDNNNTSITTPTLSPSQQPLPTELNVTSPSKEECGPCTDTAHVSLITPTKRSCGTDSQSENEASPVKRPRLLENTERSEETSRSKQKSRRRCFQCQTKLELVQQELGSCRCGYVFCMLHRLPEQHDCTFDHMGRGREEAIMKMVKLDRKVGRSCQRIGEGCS
# UniProt Q9NP66: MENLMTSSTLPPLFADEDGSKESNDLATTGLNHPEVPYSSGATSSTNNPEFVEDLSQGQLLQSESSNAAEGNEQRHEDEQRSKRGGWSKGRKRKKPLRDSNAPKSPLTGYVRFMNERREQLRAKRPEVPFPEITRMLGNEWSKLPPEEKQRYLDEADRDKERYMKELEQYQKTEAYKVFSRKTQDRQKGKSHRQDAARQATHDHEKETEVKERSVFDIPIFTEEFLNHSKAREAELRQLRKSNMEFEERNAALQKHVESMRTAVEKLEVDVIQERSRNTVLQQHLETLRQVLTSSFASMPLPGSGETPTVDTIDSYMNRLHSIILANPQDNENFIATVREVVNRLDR
# UniProt Q9GZT8: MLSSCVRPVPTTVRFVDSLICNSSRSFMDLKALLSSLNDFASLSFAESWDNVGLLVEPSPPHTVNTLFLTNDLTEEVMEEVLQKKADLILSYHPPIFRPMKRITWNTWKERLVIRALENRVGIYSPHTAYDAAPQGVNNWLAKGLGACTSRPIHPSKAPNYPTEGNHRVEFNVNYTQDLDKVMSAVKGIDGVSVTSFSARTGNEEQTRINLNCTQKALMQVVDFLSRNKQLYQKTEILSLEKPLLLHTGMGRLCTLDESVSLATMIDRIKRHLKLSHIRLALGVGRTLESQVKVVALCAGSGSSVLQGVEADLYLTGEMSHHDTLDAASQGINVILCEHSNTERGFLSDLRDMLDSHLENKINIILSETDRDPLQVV
# UniProt Q9H8E8: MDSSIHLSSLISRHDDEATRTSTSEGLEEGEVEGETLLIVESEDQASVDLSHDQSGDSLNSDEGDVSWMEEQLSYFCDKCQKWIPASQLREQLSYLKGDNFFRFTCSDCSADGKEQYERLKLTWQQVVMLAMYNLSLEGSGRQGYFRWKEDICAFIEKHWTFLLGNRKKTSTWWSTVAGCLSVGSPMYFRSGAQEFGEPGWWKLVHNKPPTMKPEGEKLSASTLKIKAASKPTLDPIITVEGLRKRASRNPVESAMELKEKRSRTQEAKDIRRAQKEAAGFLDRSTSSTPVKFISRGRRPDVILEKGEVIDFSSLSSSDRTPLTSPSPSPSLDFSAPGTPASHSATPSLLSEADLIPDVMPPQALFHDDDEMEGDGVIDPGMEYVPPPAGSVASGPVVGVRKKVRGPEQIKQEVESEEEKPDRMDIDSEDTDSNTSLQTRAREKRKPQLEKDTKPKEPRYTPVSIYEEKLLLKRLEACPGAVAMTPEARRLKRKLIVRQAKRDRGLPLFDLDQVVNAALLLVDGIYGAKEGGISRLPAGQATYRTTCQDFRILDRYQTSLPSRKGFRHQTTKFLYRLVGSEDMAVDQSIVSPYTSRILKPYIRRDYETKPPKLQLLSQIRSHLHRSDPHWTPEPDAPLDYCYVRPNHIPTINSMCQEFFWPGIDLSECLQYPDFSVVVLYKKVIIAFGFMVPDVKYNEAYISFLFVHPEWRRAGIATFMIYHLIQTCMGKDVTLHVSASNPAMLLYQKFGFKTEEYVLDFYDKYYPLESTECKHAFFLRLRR
# UniProt Q9H1I8: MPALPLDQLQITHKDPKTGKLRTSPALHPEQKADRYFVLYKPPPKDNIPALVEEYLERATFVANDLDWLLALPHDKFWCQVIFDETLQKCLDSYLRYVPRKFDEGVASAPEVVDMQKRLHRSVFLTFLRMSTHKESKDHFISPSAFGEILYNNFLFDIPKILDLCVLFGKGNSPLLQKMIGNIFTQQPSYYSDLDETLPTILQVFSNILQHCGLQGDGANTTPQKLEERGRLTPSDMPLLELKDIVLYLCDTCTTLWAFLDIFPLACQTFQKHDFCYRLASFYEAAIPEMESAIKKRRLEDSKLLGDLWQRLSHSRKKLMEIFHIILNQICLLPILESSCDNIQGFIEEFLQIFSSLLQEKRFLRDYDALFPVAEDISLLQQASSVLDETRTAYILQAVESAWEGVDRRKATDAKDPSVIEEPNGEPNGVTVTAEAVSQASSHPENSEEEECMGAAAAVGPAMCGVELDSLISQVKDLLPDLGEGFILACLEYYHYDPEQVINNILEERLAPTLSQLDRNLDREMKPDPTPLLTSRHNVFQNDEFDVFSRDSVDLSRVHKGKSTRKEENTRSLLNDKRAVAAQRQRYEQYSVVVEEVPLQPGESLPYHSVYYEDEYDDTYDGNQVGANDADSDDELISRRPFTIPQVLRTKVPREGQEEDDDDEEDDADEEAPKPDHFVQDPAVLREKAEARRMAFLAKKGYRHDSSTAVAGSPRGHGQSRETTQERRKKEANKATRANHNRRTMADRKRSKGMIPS
# UniProt Q9H7L9: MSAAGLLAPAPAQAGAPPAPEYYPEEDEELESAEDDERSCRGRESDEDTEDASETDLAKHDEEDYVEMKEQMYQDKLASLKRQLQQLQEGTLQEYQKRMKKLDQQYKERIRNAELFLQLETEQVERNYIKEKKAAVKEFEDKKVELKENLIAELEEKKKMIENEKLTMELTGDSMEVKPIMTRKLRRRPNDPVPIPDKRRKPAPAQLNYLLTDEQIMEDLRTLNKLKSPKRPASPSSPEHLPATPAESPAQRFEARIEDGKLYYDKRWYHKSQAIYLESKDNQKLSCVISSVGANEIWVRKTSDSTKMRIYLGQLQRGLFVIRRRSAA
# UniProt Q9H1Y0: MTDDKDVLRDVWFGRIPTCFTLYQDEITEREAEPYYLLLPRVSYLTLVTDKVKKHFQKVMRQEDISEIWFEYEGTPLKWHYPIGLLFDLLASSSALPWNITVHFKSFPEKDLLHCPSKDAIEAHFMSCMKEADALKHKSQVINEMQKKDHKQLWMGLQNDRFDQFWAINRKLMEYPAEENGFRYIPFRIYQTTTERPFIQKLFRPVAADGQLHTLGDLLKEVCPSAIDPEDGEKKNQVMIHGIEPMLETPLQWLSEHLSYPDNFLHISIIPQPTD
# UniProt Q9H9F9, whole entry: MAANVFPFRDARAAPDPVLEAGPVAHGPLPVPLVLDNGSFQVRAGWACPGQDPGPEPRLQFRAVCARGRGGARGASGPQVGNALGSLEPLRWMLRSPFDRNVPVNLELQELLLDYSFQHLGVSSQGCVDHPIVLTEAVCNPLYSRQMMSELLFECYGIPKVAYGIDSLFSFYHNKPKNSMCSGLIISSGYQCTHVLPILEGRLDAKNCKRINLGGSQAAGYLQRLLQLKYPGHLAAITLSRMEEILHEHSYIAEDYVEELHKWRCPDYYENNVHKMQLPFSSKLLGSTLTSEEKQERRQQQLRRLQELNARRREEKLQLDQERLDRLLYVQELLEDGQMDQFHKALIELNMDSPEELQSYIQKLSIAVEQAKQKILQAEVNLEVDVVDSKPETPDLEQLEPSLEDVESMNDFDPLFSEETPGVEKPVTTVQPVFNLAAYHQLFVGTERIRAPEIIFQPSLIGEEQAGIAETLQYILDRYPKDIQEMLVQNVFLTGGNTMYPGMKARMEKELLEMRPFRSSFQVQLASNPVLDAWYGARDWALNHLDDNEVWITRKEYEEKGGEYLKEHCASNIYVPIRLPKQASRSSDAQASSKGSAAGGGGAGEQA
# Compound: Nc1ncnc2c1ncn2[C@@H]1O[C@H](COP(=O)(O)OP(=O)(O)OP(=O)(O)O)[C@@H](O)[C@H]1O [adenosine triphosphate]
# Experiment: NP40-soluble protein abundance relative to vehicle (solubility fold change) (ratio); higher = more soluble protein in presence of ATP
# Summary of the method: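 Jurkat crude lysate (Dounce-homogenised) was treated with eight concentrations from 0.1 to 10 mM for 10 min at room temperature, then 3 min at 37 °C. It was solubilised with 0.8% NP40 and benzonase (60 min, 4 °C) and ultracentrifuged, and the supernatant was TMT-labelled for LC-MS/MS. Intensities were vsn-normalised, and the value is the fold change against the NP40-processed vehicle per replicate, from three independent experiments.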
Target,NP40-soluble protein abundance (concentration: 1mM),NP40-soluble protein abundance (concentration: 2mM),NP40-soluble protein abundance (concentration: 4mM),NP40-soluble protein abundance (concentration: 6mM),NP40-soluble protein abundance (concentration: 8mM),NP40-soluble protein abundance (concentration: 10mM)
UniProt Q9HCE5,1.01 ± 0.038,0.982 ± 0.046,0.913 ± 0.012,0.927 ± 0.057,0.974 ± 0.046,0.934 ± 0.033
UniProt Q9H008 and related entries,0.979 ± 0.019,0.9536 ± 0.0038,0.9154 ± 0.0088,0.927 ± 0.025,0.9355 ± 0.0063,0.944 ± 0.016
MRPS30 (UniProt Q9NP92),1.04 ± 0.026,0.983 ± 0.13,0.914 ± 0.086,0.946 ± 0.23,0.928 ± 0.19,0.879 ± 0.2
UniProt Q9HCJ3 and related entries,0.924 ± 0.04,0.931 ± 0.042,0.979 ± 0.038,0.85 ± 0.047,0.956 ± 0.035,0.983 ± 0.03
UniProt Q9H8P0 and related entries,1.05 ± 0.12,1.04 ± 0.13,1.06 ± 0.019,0.927 ± 0.065,1.06 ± 0.074,1.024 ± 0.0021
CHMP1A (UniProt Q9HD42),1.13 ± 0.13,1.14 ± 0.066,1.12 ± 0.054,1.17 ± 0.088,1.12 ± 0.023,1.04 ± 0.11
RAB1B (UniProt Q9H0U4),0.957 ± 0.059,0.935 ± 0.057,0.901 ± 0.065,0.965 ± 0.048,0.907 ± 0.045,0.907 ± 0.041
UniProt Q9H3U1 and related entries,0.949 ± 0.028,0.932 ± 0.041,0.928 ± 0.033,0.907 ± 0.047,0.923 ± 0.029,0.927 ± 0.037
UniProt Q9NP72 and related entries,0.99 ± 0.047,1.01 ± 0.047,0.973 ± 0.04,0.952 ± 0.094,0.981 ± 0.044,0.974 ± 0.06
L2HGDH (UniProt Q9H9P8),1.09 ± 0.058,1.1 ± 0.098,1.08 ± 0.072,1.09 ± 0.069,1.07 ± 0.068,1.09 ± 0.064
TLNRD1 (UniProt Q9H1K6),1.05 ± 0.077,1.07 ± 0.037,1.03 ± 0.12,0.97 ± 0.04,1 ± 0.038,1.07 ± 0.16
UniProt Q9H098 and related entries,0.891 ± 0.097,0.905 ± 0.13,0.971 ± 0.084,0.939 ± 0.083,0.837 ± 0.013,0.853 ± 0.2
UniProt Q9H8U3 and related entries,0.932 ± 0.033,0.915 ± 0.04,0.944 ± 0.022,0.967 ± 0.055,0.878 ± 0.049,0.901 ± 0.057
UniProt Q9H0F7 and related entries,1.08 ± 0.13,1.02 ± 0.095,1.1 ± 0.067,0.919 ± 0.1,1.07 ± 0.05,1.06 ± 0.17
HMG20A (UniProt Q9NP66),1.05 ± 0.12,1.05 ± 0.055,1.06 ± 0.085,1.15 ± 0.17,1.18 ± 0.12,1.15 ± 0.14
UniProt Q9HC38-2|F6TLX2,0.949 ± 0.026,0.924 ± 0.07,0.9623 ± 0.0052,0.973 ± 0.058,0.95 ± 0.055,0.914 ± 0.048
UniProt Q9H857 and related entries,1.1 ± 0.21,1.03 ± 0.14,1.04 ± 0.15,0.887 ± 0.19,1.11 ± 0.1,1.02 ± 0.1
UniProt Q9H6R6 and related entries,0.952 ± 0.099,0.975 ± 0.1,1.1 ± 0.069,0.957 ± 0.18,0.973 ± 0.063,0.978 ± 0.076
SLC38A10 (UniProt Q9HBR0),0.987 ± 0.095,0.921 ± 0.056,0.955 ± 0.043,0.891 ± 0.049,0.813 ± 0.11,0.911 ± 0.065
UniProt Q9GZT8 and related entries,0.951 ± 0.049,0.94 ± 0.046,0.924 ± 0.05,0.889 ± 0.078,0.948 ± 0.042,0.951 ± 0.028
ACBD3 (UniProt Q9H3P7),1.02 ± 0.037,1.02 ± 0.024,1 ± 0.052,0.982 ± 0.084,1.01 ± 0.063,0.962 ± 0.026
UniProt Q9H7P9 and related entries,0.96 ± 0.084,0.982 ± 0.06,0.991 ± 0.051,1 ± 0.088,0.944 ± 0.047,0.966 ± 0.034
UniProt Q9H8E8 and related entries,0.99 ± 0.11,0.911 ± 0.1,0.911 ± 0.085,0.922 ± 0.095,0.885 ± 0.083,0.951 ± 0.078
UniProt Q9H5V9 and related entries,0.954 ± 0.017,0.974 ± 0.0078,0.96 ± 0.03,1.05 ± 0.013,1 ± 0.025,1.05 ± 0.013
GOLPH3 (UniProt Q9H4A6),0.944 ± 0.04,0.969 ± 0.046,0.98 ± 0.066,0.931 ± 0.063,0.944 ± 0.076,0.938 ± 0.075
UniProt Q9H1I8 and related entries,0.935 ± 0.19,0.996 ± 0.2,1.12 ± 0.25,1.16 ± 0.28,1.21 ± 0.4,1.32 ± 0.31
UniProt Q9H9G7,1.09 ± 0.15,1.16 ± 0.058,1.11 ± 0.14,1.12 ± 0.039,1.17 ± 0.059,1.13 ± 0.042
SUDS3 (UniProt Q9H7L9),1.01 ± 0.024,1.01 ± 0.011,1.02 ± 0.03,0.983 ± 0.11,1.02 ± 0.062,1.06 ± 0.012
ATG5 (UniProt Q9H1Y0),0.985 ± 0.069,0.991 ± 0.074,0.992 ± 0.073,0.95 ± 0.044,0.959 ± 0.08,0.952 ± 0.066
ACTR5 (UniProt Q9H9F9),1.08 ± 0.037,1.13 ± 0.019,1.17 ± 0.072,1.22 ± 0.12,1.18 ± 0.018,1.28 ± 0.027

# Record cards (already shown). Order of values: NP40-soluble protein abundance (concentration: 1mM)	NP40-soluble protein abundance (concentration: 2mM)	NP40-soluble protein abundance (concentration: 4mM)	NP40-soluble protein abundance (concentration: 6mM)	NP40-soluble protein abundance (concentration: 8mM)	NP40-soluble protein abundance (concentration: 10mM)
# UniProt Q9HC38-2|F6TLX2 as listed: 0.949 ± 0.026	0.924 ± 0.07	0.9623 ± 0.0052	0.973 ± 0.058	0.95 ± 0.055	0.914 ± 0.048
# UniProt Q9H857 and related entries as listed: 1.1 ± 0.21	1.03 ± 0.14	1.04 ± 0.15	0.887 ± 0.19	1.11 ± 0.1	1.02 ± 0.1
